From patent US20030119102A1
Results are given in words; binding and its absence hold for the method and conditions named. For some assays here: In cells and extracts the contact can be indirect. Some binding calls cover weakened binding; strength is not graded here. Values belong to the binder of their own block, whether it stands above or below them.

How the values were obtained:
[1] = biological target: T1, rat Kv4.3 α-subunit (rat) (UniProt Q62897); experiment: reciprocal co-immunoprecipitation from rat brain synaptic membranes
T1 sequence (looked up): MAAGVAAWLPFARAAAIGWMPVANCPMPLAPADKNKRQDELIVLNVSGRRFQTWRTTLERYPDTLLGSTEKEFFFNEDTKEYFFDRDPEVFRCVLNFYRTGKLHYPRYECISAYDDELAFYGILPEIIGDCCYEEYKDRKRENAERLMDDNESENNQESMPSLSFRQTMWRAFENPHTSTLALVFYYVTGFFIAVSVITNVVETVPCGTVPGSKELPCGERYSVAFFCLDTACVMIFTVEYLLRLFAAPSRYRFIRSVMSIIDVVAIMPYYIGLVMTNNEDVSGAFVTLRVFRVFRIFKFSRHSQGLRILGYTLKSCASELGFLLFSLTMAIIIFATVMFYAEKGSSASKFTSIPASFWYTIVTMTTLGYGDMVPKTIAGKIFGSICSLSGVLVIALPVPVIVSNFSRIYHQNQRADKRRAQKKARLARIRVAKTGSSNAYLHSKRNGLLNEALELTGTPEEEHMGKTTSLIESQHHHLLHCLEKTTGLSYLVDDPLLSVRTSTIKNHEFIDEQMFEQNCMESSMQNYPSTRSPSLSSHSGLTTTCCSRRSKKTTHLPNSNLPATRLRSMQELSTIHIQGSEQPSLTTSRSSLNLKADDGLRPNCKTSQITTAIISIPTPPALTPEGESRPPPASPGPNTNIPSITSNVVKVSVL

[2] = biological target: T2, rat Kv4.2 α-subunit (rat) (UniProt Q63881); experiment: as above
T2 sequence (looked up): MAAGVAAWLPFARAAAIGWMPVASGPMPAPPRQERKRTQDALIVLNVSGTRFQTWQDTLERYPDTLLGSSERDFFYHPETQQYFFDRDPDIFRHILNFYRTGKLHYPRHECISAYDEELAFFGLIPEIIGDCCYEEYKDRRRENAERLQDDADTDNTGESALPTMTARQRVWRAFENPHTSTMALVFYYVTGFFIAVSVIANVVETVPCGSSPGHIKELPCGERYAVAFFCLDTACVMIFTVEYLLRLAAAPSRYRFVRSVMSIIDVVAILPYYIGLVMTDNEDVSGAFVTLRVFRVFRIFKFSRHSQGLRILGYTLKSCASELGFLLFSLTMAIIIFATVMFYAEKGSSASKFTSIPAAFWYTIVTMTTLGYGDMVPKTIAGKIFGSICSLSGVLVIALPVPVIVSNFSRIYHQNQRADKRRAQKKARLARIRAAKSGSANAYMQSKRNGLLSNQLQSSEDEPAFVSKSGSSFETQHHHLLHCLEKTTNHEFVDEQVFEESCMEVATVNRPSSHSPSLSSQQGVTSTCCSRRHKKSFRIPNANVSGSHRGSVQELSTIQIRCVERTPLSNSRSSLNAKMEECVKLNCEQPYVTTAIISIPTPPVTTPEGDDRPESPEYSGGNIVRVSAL

[3] = biological target: T3, chimeric Kv4.3 subunit (Kv4.3ch) (rat) (UniProt Q62897); experiment: triple-label immunofluorescence and reciprocal co-immunoprecipitation, COS-1 cells
T3 sequence: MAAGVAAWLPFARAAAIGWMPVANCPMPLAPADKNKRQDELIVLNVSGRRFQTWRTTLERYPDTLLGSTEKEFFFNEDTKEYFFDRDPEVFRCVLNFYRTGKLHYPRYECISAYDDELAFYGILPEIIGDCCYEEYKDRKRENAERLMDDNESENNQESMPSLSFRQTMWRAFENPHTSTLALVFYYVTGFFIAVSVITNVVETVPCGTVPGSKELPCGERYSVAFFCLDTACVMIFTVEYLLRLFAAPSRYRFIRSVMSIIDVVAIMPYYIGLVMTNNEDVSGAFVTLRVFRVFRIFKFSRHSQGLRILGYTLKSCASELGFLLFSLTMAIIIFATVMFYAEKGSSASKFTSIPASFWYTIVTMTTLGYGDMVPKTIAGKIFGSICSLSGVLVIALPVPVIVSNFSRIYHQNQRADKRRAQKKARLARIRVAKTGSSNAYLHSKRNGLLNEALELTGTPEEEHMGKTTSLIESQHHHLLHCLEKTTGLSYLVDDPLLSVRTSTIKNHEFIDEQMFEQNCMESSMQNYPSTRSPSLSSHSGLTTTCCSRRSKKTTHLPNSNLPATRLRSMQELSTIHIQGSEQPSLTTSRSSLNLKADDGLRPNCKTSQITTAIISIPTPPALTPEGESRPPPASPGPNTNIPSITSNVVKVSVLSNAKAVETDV

[4] = biological target: T1, rat Kv4.3 α-subunit (rat); experiment: immunofluorescence of cotransfected COS-1 and CHO cells
[5] = biological target: T2, rat Kv4.2 α-subunit (rat); experiment: as above
[6] = biological target: T1, rat Kv4.3 α-subunit (rat); experiment: reciprocal co-immunoprecipitation from lysates of cotransfected cells
[7] = biological target: T2, rat Kv4.2 α-subunit (rat); experiment: as above
[8] = biological target: T1, rat Kv4.3 α-subunit (rat); experiment: immunoprecipitation from rat brain membranes
[9] = biological target: T2, rat Kv4.2 α-subunit (rat); experiment: immunoprecipitation from rat brain membranes
[10] = biological target: T4, {GAL4 DNA-binding domain}-{rKv4.3(1-180)} fusion (rat) (UniProt P04386+Q62897); experiment: yeast two-hybrid screen, retransformation and specificity tests
[11] = biological target: T5, rKv4.2N (rat) (UniProt Q63881); experiment: yeast two-hybrid
T5 sequence (looked up): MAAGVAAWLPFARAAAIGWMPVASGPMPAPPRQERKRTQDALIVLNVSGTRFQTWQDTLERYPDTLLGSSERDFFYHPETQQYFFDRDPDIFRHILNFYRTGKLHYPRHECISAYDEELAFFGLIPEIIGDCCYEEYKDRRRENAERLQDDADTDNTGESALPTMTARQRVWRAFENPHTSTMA

[12] = biological target: T4, {GAL4 DNA-binding domain}-{rKv4.3(1-180)} fusion (rat); experiment: yeast two-hybrid
[13] = biological target: T4, {GAL4 DNA-binding domain}-{rKv4.3(1-180)} fusion (rat); experiment: yeast two-hybrid screen

binding [1]: binds
binding [2]: binds
binding [3]: binds
binding [4]: binds
binding [5]: binds
binding [6]: binds
binding [7]: binds
binding [8]: binds
binding [9]: binds
binding [10]: binds
B1: rat 1v (protein)
chain: MPARVLLAYPGTEMLTQGESEGLQTLGIVVVLCSSLKLLHYLGLIDLSDDKIEDDLEMTMVCHRPEGLEQLEAQTNFTKRELQVLYRGFKNECPSGVVNEETFKQIYAQFFPHGDASTYAHYLFNAFDTTQTGSVKFEDFVTALSILLRGTVHEKLRWTFNLYDINKDGYINKEEMMDIVKAIYDMMGKYTYPVLKEDTPRQHVDVFFQKMDKNKDGIVTLDEFLESCQEDDNIMRSLQLFQNVM

binding [10]: binds
B2: rat 8t (protein)
chain: MNHCPRRCRSPLGQAARSLYQLVTGSLSPDSVEDEFELSTVCHRPEGLEQLQEQTKFTRRELQVLYRGFKNECPSGIVNEENFKQIYSQFFPQGDSSNYATFLFNAFDTNHDGSVSFEDFVAGLSVILRGTIDDRLSWAFNLYDLNKDGCITKEEMLDIMKSIYDMMGKYTYPALREEAPREHVESFFQKMDRNKDGVVTIEEFIESCQQDENIMRSMQLFDNVI

binding [11]: binds
binding [12]: binds
binding [13]: binds
B3: rat 29x (protein)
chain: ARLPAPEHARQQPLLSGPEPGSSARVPVPGVASRRQPRGGKPPSGDGLESGPSPRPLLHARGEAGLHRQSGRVPHTGTAYFADEPTEAQAPGGFCVSPSLLGVRWPACATRTPGSLPLSPPSAQPRTLWPTPPAGPSSRMVARNQVAADNAISPASEPRRRPEPSSSSSSSSPAAPARPRPCPVVPAPAPGDTHFRTFRSHSDYRRITRTSALLDACGFYWGPLSVHGAHERLRAEPVGTFLVRDSRQRNCFFALSVKMASGPTSIRVHFQAGRFHLDGSRETFDCLFELLEHYVAAPRRMLGAPLRQRRVRPLQELCRQRIVAAVGRENLARIPLNPVLRDYLSSFPFQI
